Source: patent US20200347127A1 (CRESCENDO BIOLOGICS, published 2020)
Substitutions are numbered along the chain they refer to. No constants are given. Whether binding was seen depends on the method and setting. Some binding calls cover weakened binding; strength is not graded here. For part of these data: Where a sequence is shown, tags or fusion partners need not be part of it.

Sequences of proteins named here, by UniProt entry; tags and fusion partners are left off. A change or cut given only in a name is not applied to a line headed by its entry.
UniProt Q16552: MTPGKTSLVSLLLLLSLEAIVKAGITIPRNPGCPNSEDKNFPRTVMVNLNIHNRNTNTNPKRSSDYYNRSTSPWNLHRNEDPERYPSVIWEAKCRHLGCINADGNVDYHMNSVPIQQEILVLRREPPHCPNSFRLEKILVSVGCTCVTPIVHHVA

B1: Clone 1.2 (VHH)
VHH: EVQLVESGGGLVQPGGSLRLSCAASGFTFSSYSMYWVRQAPGKGLEWVAEIKQDGSVQYYVSDVKGRFTISRDNAKNSLYLQMNSLRAEDTAVYYCAKGEILPLYFDYWGQGTLVTVSS
B2: VH 1.10.1 (clone 1.10 expressed from phagemid vector: with linker residues and His tag) (VHH)
VHH: B1 VHH with S33R, E50S, K52E, V57E, Q58E, S62D, D63S, N77K, Y80F
notes: Human single VH domain
B3: VH 1.6.1 (clone 1.6 expressed from phagemid vector: with linker residues and His tag) (VHH)
VHH: B1 VHH with V57E, S62D, D63S
notes: Human single VH domain

How the values were obtained:
recombinant human IL-17A = recombinant human IL-17A (human, UniProt Q16552 24-155); experiment: Octet; concentrations and the partner are not given, IL-17A by the context of Example 12
Pig IL17 (pig) = target: T1, Pig IL17 (pig) (UniProt Q60I29); experiment: specificity ELISA on coated antigen, VH concentration not given
T1 sequence (cytokine, looked up): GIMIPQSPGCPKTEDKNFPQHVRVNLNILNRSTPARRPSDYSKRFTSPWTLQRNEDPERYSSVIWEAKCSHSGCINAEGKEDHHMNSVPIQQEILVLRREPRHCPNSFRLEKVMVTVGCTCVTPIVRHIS

| Binder | binding (recombinant human IL-17A) | binding (Pig IL17 (pig)) |
| --- | --- | --- |
| B1 | binds |  |
| B2 |  | binds |
| B3 |  | binds |
